{
  "source": "PubChem BioAssay AID602313",
  "about": "(National Center for Advancing Translational Sciences (NCATS), 2012)",
  "note": "In all, about 390,000 compounds went through this assay and about 760 (0.19%) were called active. Inconclusive means that the source gave no clear call. Such entries were picked first, then a sample of the others. Calls follow the shape of the dose curve; as a rule, active = well fitted inhibition curve with a large enough effect; inconclusive = small, poorly fitted or top-dose-only effect; inactive = flat fitted curve, though single readings scatter. Potencies beside an inconclusive call are fits to weak or partial responses and may not hold up. Potency is read from the fitted curve at half-maximal effect.",
  "data": [
    {"test": "qHTS for Inhibitors of Vif-A3F Interactions: qHTS; also: nearly all actives have a fitted effect of over 65% in size; as to activity, negative = active: % of control where 0% means no effect", "conditions": "HeLa A3F-eYFP + Vif (tagged APOBEC3F with the HIV-1 protein that degrades it), YFP fluorescence increase; series mostly up to 46.1 µM; activity, negative = active: at the top concentration", "excerpt": "The recent discovery and characterization of host restriction factors, which provide a potent defense to invading retroviruses, has provided new targets for antiviral drug development. APOBEC3G (A3G) and APOBEC3F (A3F) are potent cytidine deaminases that block HIV-1 replication; HIV-1 expresses the Vif protein, which counteracts A3G and A3F by binding to them and inducing their proteasomal degradation. The Vif-A3G and Vif-A3F interactions provide two potential targets for development of small molecules which can interfere with the ability of Vif to degrade A3G or A3F. […] To identify inhibitors that can interfere with Vif mediated degradation of A3G and A3F, we have developed Hela cell lines that stably express A3G or A3F tagged with eYFP at the C-terminal end (A3G-eYFP or A3F-eYFP, respectively) and Vif. In the absence of an inhibitor, Vif induces degradation of A3G-eYFP and A3F-eYFP, and the cells are not fluorescent. In the presence of an inhibitor, it is expected that Vif will be unable to degrade A3G-eYFP and/or A3F-eYFP, resulting in an increase in yellow fluorescence. In this assays Vif A3F was screened against the Molecular Library Small Molecule Repository (MLSMR). NIH Chemical Genomics Center [NCGC] NIH Molecular Libraries Probe Centers Network [MLPCN] MLPCN Grant: MH093245 Assay Submitter (PI): Vinay Pathak, National Cancer Institute\n5 uL of 700 cells/well of A3F-YFP cells are dispensed into black, clear bottom plates. The plates are incubated overnight at 37 deg C. 23 nL of compounds are added by pintool. The plates are incubated overnight at 37 deg C and then read on the TTP Acumen (Ex 488/ Em 500-530).", "values": [
      {"smiles": "Cc1ccc(C)c(NC(=O)C(Cc2ccccc2)n2cccc2)c1", "note": "(stereo unspecified)", "activity, negative = active": "inactive: -3.34%"},
      {"smiles": "Cc1cccc(-n2c(O)c(C=NCc3ccccn3)c3ccccc3c2=O)c1", "activity, negative = active": "inactive: 0.608%"},
      {"smiles": "Nc1ccc(S(=O)(=O)NCC(=O)OCCOc2ccccc2)cc1[N+](=O)[O-]", "activity, negative = active": "inactive: -10.5%"},
      {"smiles": "O=C(/C(=C(\\[O-])c1ccccc1)[n+]1ccc2ccccc2c1)c1ccccc1", "Potency": "inconclusive: 22.4 µM [inhibitor, single point]"},
      {"smiles": "CC(NC(=S)Nc1ccccc1)C1COc2ccccc2O1", "note": "(stereo unspecified)", "Potency": "inconclusive: 3.55 µM [inhibitor, partial curve, poor fit]"},
      {"smiles": "CCOc1ccccc1CNC(=O)CCC(=O)N1CCSc2ccccc21", "activity, negative = active": "inactive: 7.22%"},
      {"smiles": "CCCCNc1oc(-c2ccc(COc3ccccc3C)o2)nc1C#N", "Potency": "inconclusive: 35.5 µM [inhibitor, single point]"},
      {"smiles": "COCCNC(=S)N/N=C(\\C)c1ccc(Cl)s1", "Potency": "inconclusive: 5.62 µM [inhibitor, single point]"},
      {"smiles": "Cc1cc(C(=O)CCl)c(C)n1-c1ccon1", "activity, negative = active": "inactive: 21.6%"},
      {"smiles": "Cc1csc(Nc2cccc3ccccc23)n1", "Potency": "inconclusive: 11.2 µM [inhibitor, partial curve, poor fit]"},
      {"smiles": "O=[N+]([O-])c1ccc(Cl)c(-c2ccc(/C=N/n3cnnc3)o2)c1", "Potency": "inconclusive: 11.2 µM [inhibitor, partial curve, poor fit]"},
      {"smiles": "COc1cc2c(cc1OC)C(COc1ccc3c(C)cc(=O)oc3c1)N(C(=O)Cc1ccccc1)CC2", "note": "(stereo unspecified)", "Potency": "inconclusive: 6.31 µM [inhibitor, single point]"},
      {"smiles": "CCc1ccc(NC(=O)C2CCCN(S(=O)(=O)c3cccc4nsnc34)C2)cc1", "note": "(stereo unspecified)", "Potency": "inconclusive: 35.5 µM [inhibitor, single point]"},
      {"smiles": "O=C1CSC(c2nn(-c3ccccc3)cc2-c2cc3ccccc3oc2=O)N1Cc1ccco1", "note": "(stereo unspecified)", "activity, negative = active": "inactive: -2.46%"},
      {"smiles": "O=C(NCc1ccc(F)cc1)C(=O)NCC1CCCN1S(=O)(=O)c1ccccc1", "note": "(stereo unspecified)", "activity, negative = active": "inactive: 3.9%"},
      {"smiles": "O=C(NCc1ccc(Cl)cc1)c1ccc2c(c1)NC(=O)C(CS(=O)(=O)Cc1ccc(F)cc1Cl)N2", "note": "(stereo unspecified)", "Potency": "inconclusive: 22.4 µM [inhibitor, partial curve, poor fit]"},
      {"smiles": "O=C(c1nc2ccc(Cl)cn2c1CN1CCC[C@H]1CO)N1CCCCCCC1", "Potency": "inconclusive: 12.6 µM [inhibitor, partial curve, poor fit]"},
      {"smiles": "CCCCN(C(=O)c1cc(-c2ccc(F)cc2)nc2ccccc12)c1c(N)n(CCCC)c(=O)[nH]c1=O", "Potency": "inconclusive: 25.1 µM [inhibitor, single point]"},
      {"smiles": "CC(=O)N[C@@H](Cc1c[nH]c2ccccc12)C(=O)OCC(=O)NCc1ccc2c(c1)OCO2", "Potency": "inconclusive: 0.316 µM [inhibitor, full curve, poor fit]"},
      {"smiles": "COc1cc2c(cc1OC)-c1cc(Nc3ccc4c(c3)OCCO4)nc(=O)n1CC2", "activity, negative = active": "inactive: -7.09%"},
      {"smiles": "O=C(NC(=S)NCc1ccccc1)c1ccccc1", "Potency": "inconclusive: 35.5 µM [inhibitor, single point]"},
      {"smiles": "COc1ccc2[nH]c(=O)c(CN(C(=O)NC3CCCCC3)C3CCCCC3)cc2c1", "Potency": "inconclusive: 35.5 µM [inhibitor, single point]"},
      {"smiles": "C=CCn1c(-c2csc(-c3ccc(OC)c(OC)c3)n2)n[nH]c1=S", "Potency": "inconclusive: 5.62 µM [inhibitor, single point]"},
      {"smiles": "CCOC(=O)c1sc2nc3c(SCC(=O)O)cc(C(=O)c4ccccc4O)cn3c(=O)c2c1C", "Potency": "inconclusive: 35.5 µM [inhibitor, single point]"},
      {"smiles": "O=C1CN(C(=O)CCCc2c[nH]c3ccccc23)c2ccccc2N1", "activity, negative = active": "inactive: 3.55%"},
      {"smiles": "COc1cccc(C2Nc3ccc4ccccc4c3C3=C2C(=O)CCC3)c1O", "note": "(stereo unspecified)", "Potency": "active: 11.2 µM"},
      {"smiles": "Cc1cc(NC(=O)/C=C/c2cccc(Cl)c2)n(-c2nc3ccccc3[nH]2)n1", "Potency": "inconclusive: 35.5 µM [inhibitor, single point]"},
      {"smiles": "O=C(NCc1cccs1)C1CCCN1C(=O)Nc1cccc(F)c1", "note": "(stereo unspecified)", "Potency": "inconclusive: 12.6 µM [inhibitor, partial curve]"},
      {"smiles": "O=C(Nc1cccc(-c2cccc(Cl)c2)c1)C1CCN(C2CCC2)CC1", "Potency": "inconclusive: 22.4 µM [inhibitor, single point]"},
      {"smiles": "Cc1ccc(C(=O)Nc2cccc(C(=O)N/N=C/c3ccc(O)cc3)c2)cc1", "Potency": "inconclusive: 35.5 µM [inhibitor, single point]"},
      {"smiles": "CCOc1ccc(NC(=O)Cn2cc(C(=O)c3ccc(C)cc3)c(=O)c3cc4c(cc32)OCO4)cc1", "Potency": "inconclusive: 28.2 µM [inhibitor, single point]"},
      {"smiles": "Cc1ccc(NC(=O)CSc2nc(N)c3cc4c(nc3n2)CCCC4)cc1", "Potency": "inconclusive: 35.5 µM [inhibitor, partial curve, poor fit]"},
      {"smiles": "COc1ccc(N=Cc2oc3ccc4ccccc4c3c2O)cc1", "Potency": "active: 7.94 µM"},
      {"smiles": "Cc1ccc(NC(=O)CCc2nc3cccnc3n2-c2ccccc2)cc1Cl", "Potency": "inconclusive: 35.5 µM [inhibitor, single point]"},
      {"smiles": "O=C(COC(=O)c1cc(S(=O)(=O)N2CCc3ccccc3C2)ccc1Cl)NCc1ccco1", "Potency": "inconclusive: 3.16 µM [inhibitor, single point]"},
      {"smiles": "O=C(/C=C/c1ccco1)NC(=S)Nc1ccc(Cl)cn1", "Potency": "inconclusive: 11.2 µM [inhibitor, single point]"},
      {"smiles": "O=C(CSc1nc(C(F)(F)F)cc(=O)[nH]1)N1CCC(Cc2ccccc2)CC1", "Potency": "inconclusive: 10 µM [inhibitor, partial curve, poor fit]"},
      {"smiles": "Nc1c(C(=O)O)sc2nc(-c3ccccc3)cc(-c3ccccc3)c12", "Potency": "inconclusive: 17.8 µM [inhibitor, partial curve, poor fit]"},
      {"smiles": "COC(=O)c1sccc1S(=O)(=O)NC(C)c1cnn(-c2ccc(OC)cc2)c1C", "note": "(stereo unspecified)", "Potency": "inconclusive: 3.16 µM [inhibitor, single point]"},
      {"smiles": "COc1ccccc1COn1c(=O)c(-c2ccco2)[n+]([O-])c2ccccc21", "Potency": "inconclusive: 25.1 µM [inhibitor, single point]"},
      {"smiles": "CCOC(=O)N1CCc2cc(OC)c(OC)c3c2c1cc1cc(OC)c(OC)cc13", "Potency": "inconclusive: 1.12 µM [inhibitor, partial curve, poor fit]"},
      {"smiles": "C/C=C/C=C/C(=O)Nc1nccs1", "Potency": "inconclusive: 10 µM [inhibitor, partial curve, poor fit]"},
      {"smiles": "Cc1ccc(NC(=O)CNC(=O)c2ccco2)cc1Cl", "Potency": "inconclusive: 3.16 µM [inhibitor, partial curve, poor fit]"},
      {"smiles": "O=[N+]([O-])c1ccccc1C1Nc2cccc3cccc(c23)N1", "Potency": "inconclusive: 3.16 µM [inhibitor, full curve, poor fit]"},
      {"smiles": "COCCNC(=S)N/N=C/c1ccc(N2CCOCC2)cc1", "Potency": "inconclusive: 25.1 µM [inhibitor, single point]"},
      {"smiles": "CC1(C)CC(=O)c2sc(NC(=O)CCS(=O)(=O)c3ccccc3)nc2C1", "activity, negative = active": "inactive: 2.08%"},
      {"smiles": "CCOC(=O)c1cc(OC(=O)c2cc(OC)cc(OC)c2)n(-c2ccccc2)n1", "activity, negative = active": "inactive: -5.09%"},
      {"smiles": "COC(=O)C1=CN(c2ccc(F)cc2)C=C(C(=O)OC)C1c1ccc([N+](=O)[O-])cc1", "activity, negative = active": "inactive: -2.76%"},
      {"smiles": "O=C(CCCn1cnc([N+](=O)[O-])n1)Nc1cccc(Cl)c1Cl", "Potency": "inconclusive: 0.316 µM [inhibitor, full curve, poor fit]"},
      {"smiles": "COc1ccc(NC(=O)c2cccs2)cc1", "activity, negative = active": "inactive: -8.53%"},
      {"smiles": "C/C(CC(=O)Nc1cc(C)ccn1)=N\\NC(=O)c1ccccc1C", "Potency": "inconclusive: 10 µM [inhibitor, partial curve, poor fit]"},
      {"smiles": "COc1ccc(C(=O)Nc2cc(C)nn2-c2ccc(F)cc2)cc1", "Potency": "inconclusive: 22.4 µM [inhibitor, single point]"},
      {"smiles": "C=CS(=O)(=O)c1c2cc(OC)ccc2nc2ccc(OC)cc12", "Potency": "inconclusive: 20 µM [inhibitor, partial curve, poor fit]"},
      {"smiles": "S=C(Nc1ccc(Nc2ccccc2)cc1)NC1CCCCCC1", "Potency": "inconclusive: 3.55 µM [inhibitor, full curve, poor fit]"},
      {"smiles": "CCC(=O)Oc1ccc2c(c1)O/C(=C\\c1ccco1)C2=O", "Potency": "inconclusive: 10 µM [inhibitor, partial curve, poor fit]"},
      {"smiles": "CSc1nsc(/C=C/Nc2ccc(O)cc2C)c1C#N", "Potency": "active: 10 µM"},
      {"smiles": "CCOC(=O)c1cc2c(=O)n3ccccc3nc2n(Cc2ccco2)c1=NC(=O)c1cccc(Br)c1", "Potency": "inconclusive: 35.5 µM [inhibitor, single point]"},
      {"smiles": "CCN1CC(c2ccccc2)C(c2ccc(Cl)cc2)=N1", "note": "(stereo unspecified)", "Potency": "inconclusive: 35.5 µM [inhibitor, single point]"},
      {"smiles": "CCOC(=O)/C=c1\\s/c(=C\\c2ccccc2C)c(=O)n1CC(=O)NCc1ccc2c(c1)OCO2", "Potency": "inconclusive: 35.5 µM [inhibitor, single point]"},
      {"smiles": "S=C(NCc1ccccn1)Nc1ccc(Cl)c(Cl)c1", "Potency": "inconclusive: 22.4 µM [inhibitor, single point]"},
      {"smiles": "O=S(=O)(Nc1ccc(-n2cccc2)cc1)c1ccccc1", "activity, negative = active": "inactive: -5.98%"},
      {"smiles": "COc1ccccc1NS(=O)(=O)c1cc([N+](=O)[O-])ccc1N/N=C/c1sc(N2CCOCC2)nc1-c1ccccc1", "Potency": "inconclusive: 2.51 µM [inhibitor, full curve, poor fit]"},
      {"smiles": "CCOc1cccc(C(=O)NC(=S)Nc2ccccc2)c1", "activity, negative = active": "inactive: -21.7%"},
      {"smiles": "CCNc1c(NCC)c(=O)c1=O", "Potency": "inconclusive: 11.2 µM [inhibitor, partial curve, poor fit]"},
      {"smiles": "Oc1c(/C=C/C=C/C=Nc2ccccc2)sc(=S)n1Cc1ccccc1", "Potency": "inconclusive: 20 µM [inhibitor, single point]"},
      {"smiles": "COC(=O)c1cn(-c2ccccc2)nc1-c1ccncc1", "Potency": "inconclusive: 6.31 µM [inhibitor, single point]"}
    ]}
  ]
}
